Earlier results in patent US20160311826A1, “SGC STIMULATORS” (IRONWOOD PHARMACEUTICALS, INC., priority 2013, published 2016).
For at least one compound, name, drawing or mass did not settle the structure.

Test system: dystrophin-deficient zebra fish
Settings: cited from earlier work

With `CN1CC(=O)N2[C@H](c3ccc4c(c3)OCO4)c3[nH]c4ccccc4c3C[C@@H]2C1=O` [tadalafil] as the compound, how does the “dystrophic skeletal muscle and survival” value read?
Its value is “rescue dystrophic skeletal muscle and prolong survival”.
